The results in this text go back to PubChem BioAssay (NCATS).

This is one part of the list. Further columns of the screen follow, without active or inactive calls. Compounds called inactive in the main read-out are mostly missing here. For part of these data: Words in brackets tell the shape of the fitted curve; partial curves, single points and poor fits give uncertain potencies.

A word on the AC50: it is the concentration at which the activity in the assay is half-maximal.

The nature of one assay: qHTS assay for small molecule antagonists of vitamin D receptor signaling (AID 588541). As to conditions: HEK293T VDR-UAS-bla, beta-lactamase ratio, antagonist mode; measured here: W460 blue channel (cell viability). (In general: qHTS replaces the single test concentration by a dilution series.)
As for `O=C(O)c1cc(-c2ccccc2)nc2ccccc12`, the concentration at half-maximal activity (AC50) was 25.1 µM [rising, single point].
Same read-out and setting: the figure for `CCCCCCCCCCCCCCCCCC(N)=O` is 50.1 µM [rising, single point].
Same read-out and setting: the figure for `CCCCC(CC)COC(=O)CC(C(=O)OCC(CC)CCCC)S(=O)(=O)O` (stereo not given) is 25.1 µM [falling, full curve].
On the same count and under the same terms, the figure for `CCN(CC)c1ccc2c(C)cc(=O)oc2c1` is 39.8 µM [rising, partial curve, poor fit]; for `CN(C)c1ccc(C(c2ccccc2)c2ccc(N(C)C)cc2)cc1` it is 50.1 µM [falling, partial curve, poor fit].
Take `C[Si]1(C)O[Si](C)(C)O[Si](C)(C)O[Si](C)(C)O[Si](C)(C)O1`: the AC50 is 0.0562 µM [falling, full curve, poor fit].
Still for that read-out and setting: the figure for `C=C(C)C1CC=C(C)CC1` (stereo not given) is 251 µM [rising, full curve, poor fit].

The nature of a further assay: qHTS assay for small molecule agonists of retinoid X receptor alpha signaling (AID 588544). As to conditions: HEK293T RXRa-UAS-bla, beta-lactamase reporter, 18 h; 530 nm emission.
Take `CC(C)c1ccc2cc(C(C)C)ccc2c1`: the max response is -10.8%.
On to `Nc1cc(Cl)nc(C(=O)O)c1Cl`, for which the max response is -5.31%.
Same read-out and setting: the figure for `CC(O)CN(CCN(CC(C)O)CC(C)O)CC(C)O` (stereo not given) is 18%.
Same read-out and setting: the figure for `CCCCNS(=O)(=O)c1ccccc1` is -20.5%; for `CCCCCCCCCCCCCCCCCC(N)=O` it is -19.3%; for `CCCCC(CC)COC(=O)CC(C(=O)OCC(CC)CCCC)S(=O)(=O)O` (stereo not given) it is 51.5%.
The same measure, in the same setting: then `CCCCCCCCOC(=O)c1cc(O)c(O)c(O)c1`, with -14.5%.
Regarding `O=C(OCc1ccccc1)c1ccc(O)cc1`, the max response came out at 11.2%.
`CC1CC(OC(=O)c2ccccc2O)CC(C)(C)C1` (stereo not given): the max response is -22%.
The same measure, in the same setting: then `C=C(C)C(=O)OCCN(C)C`, with -17.1%; and `CCCCCCCCCCCC[N+](C)(C)C`, with 52.2%; and `COc1cc(/C=C/c2ccccc2)oc(=O)c1`, with 41.9%.
Turning to `CCN(CC)c1ccc2c(C)cc(=O)oc2c1`, the max response amounted to 43.9%.
In the case of `C1=C/CC/C=C/CC/C=C/CC/1`, the max response was -24.3%.
`c1ccc(OCCOc2ccccc2)cc1`: the max response is 3.64%.
Regarding `CCc1c(C(=O)O)c(=O)cnn1-c1ccc(Cl)cc1`, the max response was determined as 4.97%.
On the same count and under the same terms, then `COC(=O)C(C)Oc1ccc(Oc2ncc(C(F)(F)F)cc2Cl)cc1` (stereo not given), with 44.9%; and `CN(C)c1ccc(C(c2ccccc2)c2ccc(N(C)C)cc2)cc1`, with 39.1%.
Same read-out and setting: the figure for `CCCOC(=O)NCCCN(C)C` is -19.8%; for `C=CCOC(=O)CCCCCCCC` it is -0.522%.
`COC(=O)c1cccc(C)c1S(=O)(=O)NC(=O)Nc1nc(OCC(F)(F)F)nc(N(C)C)n1`: the max response is -13.4%.
On the same count and under the same terms, then `CCCCC(CC)COC(=O)c1ccc(N(C)C)cc1` (stereo not given), with -9.82%.
Consider `Cc1ccc(N=Nc2c(O)ccc3ccccc23)c(C)c1`, for which the max response is -6.98%.
Take `COc1ccc(C(=O)Nc2ccccc2)cc1[N+](=O)[O-]`: the max response stood at 32.2%.
The same measure, in the same setting: then `C=CC(=O)OCCOc1ccccc1`, with -10.2%; and `CC(COCC(C)OC(=O)c1ccccc1)OC(=O)c1ccccc1` (stereo not given), with 13.5%; and `COC(=O)CCSCCC(=O)OC`, with 5.25%.
Still for that read-out and setting: then `CC1=CC(=O)NS(=O)(=O)O1`, with -5.71%.
Same read-out and setting: then `CC(C)OC(=O)c1cc(C(=O)OC(C)C)cc([N+](=O)[O-])c1`, with 6.76%; and `CCCCCCCC[Si](OCC)(OCC)OCC`, with -16.7%.
Consider `O=C(O)C(c1ccc(Cl)cc1)c1ccc(Cl)cc1`, for which the max response is -6.13%.
For `Nc1ccc(Cl)cc1Cl`, the max response was -7.32%.
On to `O=[N+]([O-])c1cc(Cl)c(Cl)c(Cl)c1Cl`, for which the max response amounted to 24.1%.
Same read-out and setting: then `O=S(=O)(O)NC1CCCCC1`, with -17.6%; and `CS(C)=O`, with -5.9%.
On to `C=C(C)C1CC=C(C)CC1` (stereo not given), for which the max response came to 46.2%.
Regarding `Cc1ccc(Cl)cc1Cl`, the max response is -7.93%.
Still for that read-out and setting: then `CC(C)(C)C1CCC(O)CC1` (stereo not given), with -13.8%.
